In publication PMC4773256:
No constants are given. Whether binding was seen depends on the method and setting. Binding seen in cells or lysates may run through a third protein. Some results given as binding are weak or reduced against the parent protein; the word gives no strength.

The chains behind the UniProt entries cited, without tags or fusion partners.
UniProt O15169: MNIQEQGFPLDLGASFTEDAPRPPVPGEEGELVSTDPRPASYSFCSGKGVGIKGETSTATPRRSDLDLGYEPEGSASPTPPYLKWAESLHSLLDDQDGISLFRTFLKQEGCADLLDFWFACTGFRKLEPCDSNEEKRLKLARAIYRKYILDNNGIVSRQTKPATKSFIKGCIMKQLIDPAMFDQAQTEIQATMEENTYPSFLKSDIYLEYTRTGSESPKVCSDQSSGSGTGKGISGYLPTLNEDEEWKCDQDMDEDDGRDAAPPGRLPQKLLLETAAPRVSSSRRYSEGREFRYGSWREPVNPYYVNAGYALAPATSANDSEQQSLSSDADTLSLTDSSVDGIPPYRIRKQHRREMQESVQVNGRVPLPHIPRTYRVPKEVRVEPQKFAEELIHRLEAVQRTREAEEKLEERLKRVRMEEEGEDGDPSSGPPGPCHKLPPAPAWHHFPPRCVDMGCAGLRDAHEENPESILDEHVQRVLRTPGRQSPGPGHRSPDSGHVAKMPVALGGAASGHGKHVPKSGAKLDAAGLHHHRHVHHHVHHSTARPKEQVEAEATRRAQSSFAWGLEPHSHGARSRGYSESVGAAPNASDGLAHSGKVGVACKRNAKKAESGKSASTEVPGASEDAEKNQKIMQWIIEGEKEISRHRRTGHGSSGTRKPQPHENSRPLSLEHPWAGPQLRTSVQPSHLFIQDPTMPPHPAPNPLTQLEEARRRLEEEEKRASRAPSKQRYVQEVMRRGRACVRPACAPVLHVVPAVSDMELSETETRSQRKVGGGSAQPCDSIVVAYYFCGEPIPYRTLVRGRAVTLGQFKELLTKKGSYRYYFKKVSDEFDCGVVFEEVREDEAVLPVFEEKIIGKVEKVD
UniProt O95271: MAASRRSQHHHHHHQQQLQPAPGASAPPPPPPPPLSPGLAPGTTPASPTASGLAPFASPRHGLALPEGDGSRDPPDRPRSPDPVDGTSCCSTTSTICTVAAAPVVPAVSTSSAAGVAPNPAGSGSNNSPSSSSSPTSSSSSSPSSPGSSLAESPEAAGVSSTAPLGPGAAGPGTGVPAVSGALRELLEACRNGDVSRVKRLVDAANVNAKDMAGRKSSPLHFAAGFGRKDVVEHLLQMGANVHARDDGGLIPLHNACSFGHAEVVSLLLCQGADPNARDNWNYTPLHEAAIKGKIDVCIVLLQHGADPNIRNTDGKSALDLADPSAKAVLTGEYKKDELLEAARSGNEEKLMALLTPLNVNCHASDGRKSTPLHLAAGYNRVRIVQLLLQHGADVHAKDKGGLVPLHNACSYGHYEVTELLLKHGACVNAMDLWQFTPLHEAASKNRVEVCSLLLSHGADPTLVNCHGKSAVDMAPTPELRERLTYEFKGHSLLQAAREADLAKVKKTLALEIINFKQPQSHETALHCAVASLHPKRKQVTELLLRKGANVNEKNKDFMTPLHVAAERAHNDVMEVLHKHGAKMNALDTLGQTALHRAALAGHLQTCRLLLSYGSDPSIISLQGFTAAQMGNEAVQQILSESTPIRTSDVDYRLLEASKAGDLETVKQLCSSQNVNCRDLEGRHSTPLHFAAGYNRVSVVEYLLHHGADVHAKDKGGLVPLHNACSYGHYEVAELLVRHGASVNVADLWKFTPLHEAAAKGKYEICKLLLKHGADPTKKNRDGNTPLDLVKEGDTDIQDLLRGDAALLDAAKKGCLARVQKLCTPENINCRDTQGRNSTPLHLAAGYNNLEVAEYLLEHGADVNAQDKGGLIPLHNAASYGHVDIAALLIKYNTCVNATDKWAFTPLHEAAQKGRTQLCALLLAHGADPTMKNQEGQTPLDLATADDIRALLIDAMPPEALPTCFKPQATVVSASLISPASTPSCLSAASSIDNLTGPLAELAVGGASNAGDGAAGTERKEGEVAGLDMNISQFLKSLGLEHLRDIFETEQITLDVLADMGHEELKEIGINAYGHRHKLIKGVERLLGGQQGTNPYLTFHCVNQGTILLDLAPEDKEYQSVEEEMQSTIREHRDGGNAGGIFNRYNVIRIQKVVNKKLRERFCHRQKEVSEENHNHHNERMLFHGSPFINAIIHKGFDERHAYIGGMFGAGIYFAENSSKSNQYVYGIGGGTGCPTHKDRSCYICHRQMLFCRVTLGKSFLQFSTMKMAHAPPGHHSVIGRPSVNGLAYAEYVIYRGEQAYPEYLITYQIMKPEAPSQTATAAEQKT
UniProt P35222: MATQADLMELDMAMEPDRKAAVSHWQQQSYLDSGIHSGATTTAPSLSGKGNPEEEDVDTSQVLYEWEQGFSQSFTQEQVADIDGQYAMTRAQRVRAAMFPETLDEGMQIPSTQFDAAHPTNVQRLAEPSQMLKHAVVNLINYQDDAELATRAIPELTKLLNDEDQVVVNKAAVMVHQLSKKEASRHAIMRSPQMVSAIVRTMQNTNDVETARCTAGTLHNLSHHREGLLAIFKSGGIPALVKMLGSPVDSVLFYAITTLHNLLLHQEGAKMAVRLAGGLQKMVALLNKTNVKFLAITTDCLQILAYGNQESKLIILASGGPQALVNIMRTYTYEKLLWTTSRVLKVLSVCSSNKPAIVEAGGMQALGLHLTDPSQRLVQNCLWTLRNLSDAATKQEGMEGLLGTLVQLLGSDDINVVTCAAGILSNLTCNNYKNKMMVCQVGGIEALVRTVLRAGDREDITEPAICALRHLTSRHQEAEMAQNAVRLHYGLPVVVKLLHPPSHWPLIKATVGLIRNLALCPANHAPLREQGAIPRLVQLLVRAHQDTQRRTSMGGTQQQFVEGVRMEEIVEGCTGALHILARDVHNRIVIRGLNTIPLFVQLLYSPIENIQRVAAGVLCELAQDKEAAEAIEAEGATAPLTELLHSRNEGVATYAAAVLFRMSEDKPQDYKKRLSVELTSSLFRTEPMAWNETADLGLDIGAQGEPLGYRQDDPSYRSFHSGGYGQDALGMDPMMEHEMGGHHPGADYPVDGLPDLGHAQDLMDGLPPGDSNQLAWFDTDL

What was measured:
[1] = biological target: axin (human (endogenous in SW480)) (UniProt O15169); assay: co-IP; SW480 cells untreated (control); also 6 h 20 μM MG132 alone; 1 mg lysate in IP lysis buffer, axin antibody overnight, protein-G agarose, western blot
[2] = biological target: axin (human (endogenous in HEK293T)) (UniProt O15169); assay: co-IP; HEK293T cells untreated (control); IP and analysis as in Fig 3 (axin antibody, western blot)
[3] = biological target: axin (human (endogenous in SW480)) (UniProt O15169); assay: co-IP; SW480 cells treated 6 h or 24 h with TNKSi (5 μM G007-LK; also 2.5 μM XAV939); 1 mg lysate in IP lysis buffer, axin antibody overnight, protein-G agarose, western blot
[4] = biological target: axin (human (endogenous in HEK293T)) (UniProt O15169); assay: co-IP; HEK293T cells treated 6 h or 24 h with 5 μM G007-LK; IP and analysis as in Fig 3 (axin antibody, western blot)

| Substance | binding [1] | binding [2] | binding [3] | binding [4] |
| --- | --- | --- | --- | --- |
| tankyrase 1 (from UniProt O95271 1-1327) (enzyme) | binds weakly | binds weakly | binds | binds |
| β-catenin (from UniProt P35222 1-781) | – | – | binds | binds |
